Results on 58 compounds are retold here after PubChem BioAssay AID1487 (National Center for Advancing Translational Sciences (NCATS), 2009).

“And” between values parts separate entries of the source, which are not always exact repeats. Equal entries are not always repeated. The list shows a part of the results. Shown are side measurements of this screen, not its main read-out; they come without a call. The list favours compounds with an active or inconclusive main result. Potencies come from curve fits of mixed quality, noted in brackets.

The assay is described as follows: qHTS Assay for Modulators of Lamin A Splicing. Conditions: HeLa LMNA splicing GFP/RFP minigene ratio, 48 h. A digest of the protocol:
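S3 HeLa cells stably expressing lamin A-EGFP splicing minigene plus DsRed2, 600 cells/well, 48 h compound exposure at 37C. Laser-scanning cytometry; analysed as GFP (500-530 nm)/RFP (575-640 nm) total intensity ratio; 0.5% DMSO vehicle.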

The mark [1] stands for this setting: measured here: GFP splicing reporter channel.
Where [2] appears, read: measured here: RFP viability control channel.

On to `Cc1cc2c(OCC(O)CNC3CCCCC3)cccc2[nH]1` (stereo not given), for which the AC50 under setting [1] is 0.398 µM [rising, full curve] and the AC50 under setting [2] is 0.0316 µM [rising, full curve, poor fit].
As for `CC1CN(S(=O)(=O)c2cccc(C(=O)NCc3ccc4c(c3)OCO4)c2)CC(C)O1` (stereo not given), under setting [2], the AC50 was 12.6 µM [rising, partial curve].
The same measure, in the same setting: the same measure for `CC(C)(Oc1ccc(C2CC2(Cl)Cl)cc1)C(=O)O` (stereo not given): 2.82 µM [rising, partial curve, poor fit] and 5.62 µM [rising, single point].
In the case of `Fc1ccc(-c2nnc3sc(C4COc5ccccc5O4)nn23)cc1` (stereo not given), the AC50 under setting [1] is 14.1 µM [rising, single point].
`NC(=O)c1cc(C(N)=O)nc(Cl)n1`: the AC50 under setting [2] is 1.58 µM [falling, partial curve, poor fit].
Consider `CC(=O)Oc1ccc(C(=O)Nc2cc(NC(=O)c3ccc(OC(C)=O)cc3)cc(C(=O)NC(C)(C)C)c2)cc1`, for which the half-maximal activity concentration (AC50) is 25.1 µM [rising, single point] under setting [1] and 25.1 µM [rising, single point] under setting [2].
Consider `COc1cc(/C=N/NS(=O)(=O)c2ccc3ccccc3c2)ccc1OCCN1CCOCC1`, for which the concentration at half-maximal activity (AC50) under setting [1] was 0.0562 µM [rising, full curve, poor fit].
With `CNC(=O)N/N=C(\N)c1ccccn1`, under setting [2], the AC50 was 10 µM [falling, partial curve].
On to `CC(=O)c1c(C)[nH]c(C(=O)OCc2c(F)cccc2Cl)c1C`, for which the AC50 under setting [1] is 12.6 µM [falling, partial curve, poor fit] and the half-maximal activity concentration (AC50) under setting [2] was 1.26 µM [falling, full curve, poor fit].
Regarding `O=C(NCCc1ccc(Cl)cc1)C1CCC(CNc2nc(=S)[nH]c3ccccc23)CC1` (stereo not given), the AC50 under setting [2] is 35.5 µM [falling, single point].
In the case of `COc1ccc(-c2[nH]ncc2CN2CCC(O)(c3ccc(Cl)cc3)CC2)cc1`, the half-maximal activity concentration (AC50) under setting [2] was 5.62 µM [rising, full curve, poor fit].
Turning to `COc1cc2c(cc1NC(=O)CN(C)Cc1cccc(OC)c1OC)oc1ccccc12`, the AC50 under setting [2] was 4.47 µM [rising, partial curve].
Take `COc1cccc(-n2ccnc2SCC(=O)Nc2ccccc2)c1`: the AC50 under setting [2] is 25.1 µM [rising, single point].
On to `O=C(/C=C/Sc1ccccc1)c1ccccc1`, for which the AC50 runs as follows: under setting [1], 35.5 µM [falling, single point]; under setting [2], 2.51 µM [falling, partial curve, poor fit].
Turning to `O=C(COc1ccccc1)N/N=C/c1ccc([N+](=O)[O-])o1`, the concentration at half-maximal activity (AC50) under setting [2] was 17.8 µM [rising, partial curve].
On to `Oc1ccc(CN2CCCc3ccccc32)c2cccnc12`, for which the AC50 under setting [2] is 35.5 µM [rising, single point].
As to `N=c1ccn(Cc2ccc(Cl)cc2Cl)cc1`, the concentration at half-maximal activity (AC50) under setting [2] is 2.82 µM [rising, full curve].
Consider `Cc1cccc(NC(=O)/C=C/c2ccc3c(c2)OCO3)n1`, for which the AC50 under setting [2] was 35.5 µM [rising, single point].
Take `CCC(Sc1nnc(-c2ccc(C)c(Cl)c2)n1CC)C(=O)Nc1nccs1` (stereo not given): the AC50 is, setting by setting: under setting [1], 2.24 µM [rising, full curve, poor fit]; under setting [2], 10 µM [rising, partial curve].
On to `COC(=O)c1cccc(NC(=O)CSc2nc3cccnc3n2C)c1`, for which the half-maximal activity concentration (AC50) under setting [2] was 11.2 µM [rising, partial curve].
Same read-out and setting: to `CC(C)(C)c1cccc(OCCCSc2ncccn2)c1` belongs 31.6 µM [rising, single point].
Take `COc1cccc(OCCNC(=O)c2ccccc2Sc2ccccc2C#N)c1`: the AC50 under setting [2] is 17.8 µM [rising, partial curve].
As for `CC1=CN2C(=N)/C(=C/c3ccc([N+](=O)[O-])o3)C(=O)N=C2S1`, the AC50 under setting [1] was 35.5 µM [falling, single point].
With `Cc1csc(=Nc2c(C)n(C)n(-c3ccccc3)c2=O)n1Cc1ccccc1`, the AC50 is 22.4 µM [rising, single point] under setting [1] and 14.1 µM [rising, single point] under setting [2].
For the compound `CCc1nc2c(cnn2-c2ccc(F)cc2)c(=O)n1-c1ccc(N2CCC(C)CC2)cc1`, the AC50 under setting [2] was 2.82 µM [rising, partial curve].
Regarding `COc1ccc(-c2[nH]nc3c2C(c2ccc(OC(=O)N4CCOCC4)cc2)C(C#N)=C(N)O3)cc1` (stereo not given), under setting [2], the concentration at half-maximal activity (AC50) is 10 µM [rising, partial curve].
In the case of `CCOc1ccc(NC(=S)N(CCc2c(C)[nH]c3ccc(C)cc23)Cc2ccco2)cc1`, the AC50 under setting [1] is 7.08 µM [rising, partial curve].
In the case of `CCOC(=O)c1ccc(NC(=O)CC2SCCNC2=O)cc1` (stereo not given), the AC50 under setting [2] is 0.00891 µM [rising, full curve, poor fit].
Turning to `Cn1cc(-c2nc3cnc(Oc4ccccc4)nc3n(Cc3cccs3)c2=O)c2ccccc21`, the AC50 by setting is: under setting [1], 17.8 µM [falling, partial curve]; under setting [2], 12.6 µM [falling, partial curve].
As to `COC(=O)c1ccc(/C=C/c2ccc3cccc(OC(C)=O)c3n2)cc1`, the AC50 under setting [2] is 31.6 µM [rising, single point].
Take `Cc1ccc(C)c(Nc2ccc(C(=O)NCCc3ccccc3)cn2)c1`: the AC50 under setting [2] is 7.94 µM [rising, partial curve].
`COc1cc(NC(=O)c2cc([N+](=O)[O-])ccc2Br)ccc1NC(=O)c1ccco1`: under setting [2], the AC50 was 35.5 µM [rising, single point].
On to `CCC(C)NS(=O)(=O)c1ccc(S(=O)(=O)N2CCCC3(CCCCC3)C2)cc1` (stereo not given), for which the AC50 under setting [2] is 7.08 µM [rising, partial curve].
For `COC(=O)c1ccc(/C=C(\C#N)C(=O)NC(C)c2ccccc2)cc1` (stereo not given), the half-maximal activity concentration (AC50) runs as follows: under setting [1], 25.1 µM [falling, single point]; under setting [2], 35.5 µM [falling, single point].
On to `COc1ccc(C2=NN(CC(=O)NCCCN(C)c3ccccc3)C(=O)CC2)cc1`, for which, under setting [1], the concentration at half-maximal activity (AC50) is 3.16 µM [rising, single point].
On to `Cc1nc(SCC(=O)c2cc3ccccc3oc2=O)c(C#N)c(-c2ccccc2)c1C(=O)Nc1ccccc1`, for which, under setting [2], the concentration at half-maximal activity (AC50) is 8.91 µM [rising, partial curve, poor fit].
Regarding `Cc1ccc2c(=O)cc(CSc3nnc(-c4ccccc4)n3C)[nH]c2c1C`, the AC50 is, setting by setting: under setting [1], 0.0251 µM [rising, full curve, poor fit]; under setting [2], 0.02 µM [rising, full curve, poor fit].
On to `CCOC(=O)Cn1c(=O)n(C2CCCCC2)c2nc(-c3ccc(Cl)cc3)nc(C(N)=O)c21`, for which the half-maximal activity concentration (AC50) under setting [1] was 5.62 µM [rising, partial curve] and the AC50 under setting [2] was 4.47 µM [rising, partial curve, poor fit].
`CCCNC(=O)c1cc(-c2ccco2)on1`: the concentration at half-maximal activity (AC50) by setting is: under setting [1], 35.5 µM [falling, single point]; under setting [2], 35.5 µM [falling, single point].
Consider `COC(=O)c1cc2c(ccn2-c2ccc(F)cc2)n1Cc1cccc(OC)c1`, for which, under setting [2], the AC50 is 11.2 µM [rising, partial curve, poor fit].
With `Cc1cc2ncc(C(N)=O)cn2n1`, the half-maximal activity concentration (AC50) under setting [1] is 11.2 µM [rising, partial curve] and the AC50 under setting [2] is 11.2 µM [rising, partial curve, poor fit].
As to `CSc1ccc(CNC(=O)c2ccccc2NC(=O)c2nsc3ccccc23)cc1`, the AC50 runs as follows: under setting [1], 3.98 µM [rising, partial curve]; under setting [2], 5.62 µM [rising, partial curve].
Consider `CCOC(=O)c1cnc(SCC(=O)Nc2ccccc2C(=O)OC)nc1N`, for which, under setting [2], the half-maximal activity concentration (AC50) was 28.2 µM [rising, single point].
For `CCCCN1CCc2nc(N3CCN(c4ncccn4)CC3)ncc2C1`, the AC50 under setting [2] is 15.8 µM [rising, single point].
On the same count and under the same terms, to `Cc1ccc(NC(=O)CSc2nc3c([nH]c4ccccc43)c(=O)n2-c2ccccc2)c(C)c1` belongs 10 µM [rising, partial curve, poor fit].
As for `Cc1ccc(N2CCN(C(=S)c3ccc(N(C)C)cc3)CC2)cc1`, the half-maximal activity concentration (AC50) was 0.891 µM [rising, single point] under setting [1] and 8.91 µM [rising, partial curve] under setting [2].
Turning to `Cc1cnc(C(=O)Nc2ccc(C(C)C)cc2)cn1`, the AC50 under setting [2] is 35.5 µM [rising, single point].
On to `COCCn1c(CN2CCN(c3ccc(OC)cc3)CC2)nc2c1c(=O)n(C)c(=O)n2C`, for which the AC50 is, setting by setting: under setting [1], 11.2 µM [rising, single point]; under setting [2], 17.8 µM [rising, single point].
On to `COc1ccc(/C(C)=N/OCC(=O)Nc2nc3ccccc3s2)cc1OC`, for which the half-maximal activity concentration (AC50) under setting [2] was 35.5 µM [rising, single point].
Take `N#Cc1cc(S(=O)(=O)c2ccccc2)c(N)[nH]c1=O`: the concentration at half-maximal activity (AC50) under setting [2] is 20 µM [rising, single point].
As to `COc1ccccc1N1CCN(C(=O)Cn2c(=O)nc(-c3ccccc3)c3cc(Cl)ccc32)CC1`, under setting [2], the AC50 was 0.447 µM [falling, full curve].
Still for that read-out and setting: the same measure for `CCOc1ccc(C(=O)Nc2ccc3nc(SCc4ccccc4)sc3c2)cc1`: 14.1 µM [falling, partial curve, poor fit]; for `COc1ccccc1/C=C/C(=O)c1ccccc1`: 4.47 µM [falling, single point]; for `CC1CC1c1ccc(/C=C(\C#N)C(=O)Nc2ccc(Cl)cc2)o1` (stereo not given): 17.8 µM [rising, single point].
In the case of `O=C1C2CC=CCC2C(=O)N1Cc1ccccc1Cl` (stereo not given), the AC50 under setting [1] is 25.1 µM [rising, single point].
On to `O=C(COC(=O)c1ccccc1C(=O)c1ccc(Cl)c([N+](=O)[O-])c1)NC1CCCCCC1`, for which the AC50 is 35.5 µM [falling, single point] under setting [1] and 35.5 µM [falling, single point] under setting [2].
Take `COc1cc(C)c(NC(=S)Nc2ccc(Cl)c(Cl)c2)cc1OC`: the AC50 under setting [2] was 12.6 µM [rising, single point].
Regarding `Cc1cc(C(=O)COc2cccnc2[N+](=O)[O-])c(C)n1Cc1ccco1`, the AC50 runs as follows: under setting [1], 11.2 µM [rising, partial curve, poor fit]; under setting [2], 20 µM [rising, single point].
